The text below walks through data of PubChem BioAssay AID2685 (National Center for Advancing Translational Sciences (NCATS), 2010).

A word on the AC50: it is the concentration at which the activity in the assay is half-maximal. Low readings indicate greater potency, high ones weaker potency.

The list shows a part of the results. These are further read-outs of the screen, such as a control signal, another cell line or another target. No call is given for them. The list favours compounds with an active or inconclusive main result. Potencies come from curve fits of mixed quality, noted in brackets.

This assay can be described thus: qHTS Assay for Lipid Storage Modulators in Drosophila S3 Cells.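 On cell number change: cells counted by Cell Tracker Red CMTPX staining in the red channel.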 The conditions noted are these: BODIPY lipid droplet fluorescence, 18-24 h; for cell number change: measured here: cell count max response, cells fed with added oleic acid. In short, it runs like this: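 Drosophila S3 cells loaded with oleic acid (400 uM, as added) and compounds at several concentrations; lipid droplets imaged by 488-nm laser-scanning cytometry, 500–530 nm intensity and object ratio to cell channel. Percent activity normalized to 20 uM Triacsin C.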

[1] abbreviates: measured here: lipid fluorescence (Fed channel) AC50, cells fed with added oleic acid.
Where [2] appears, read: measured here: cell number channel AC50, cells fed with added oleic acid.

Regarding `Cc1cnn(Cc2ccccc2)c1N`, the cell number change is -2.55%. Under setting [1], the AC50 was 1.84 µM [falling, partial curve].
`O=C(Nc1ccc(S(=O)(=O)Nc2nccs2)cc1)c1c(F)c(F)c(F)c(F)c1F`: the cell number change is -31.5%. Further, under setting [2], the concentration at half-maximal activity (AC50) was 1.16 µM [falling, single point]. In addition, the concentration at half-maximal activity (AC50) under setting [1] was 29.1 µM [falling, single point].
In the case of `Cc1ccc([C@@H]2[C@@H]3C(=O)N(C)C(=O)[C@@H]3[C@]3(C)C(=O)N(Cc4ccccn4)CC(=O)N23)o1`, the cell number change amounted to 5.5%. Also, the AC50 under setting [1] is 32.6 µM [rising, single point].
`O=C(COc1nncc2ccccc12)NCCC1=CCCCC1`: the cell number change was found to be 1.06%. For the same compound, under setting [2], the AC50 was 0.731 µM [falling, full curve, poor fit]. Moreover, the AC50 under setting [1] is 1.64 µM [rising, partial curve].
As for `Cc1ccc(NC(=O)CSc2nnc(C3COc4ccccc4O3)o2)c(Cl)c1` (stereo not drawn), the cell number change was found to be 16.2%. Moreover, the AC50 under setting [1] was 1.84 µM [rising, full curve].
Consider `Cc1cccc(C)c1NC(=O)CNC(=O)Cc1ccc(Br)cc1`, for which the cell number change amounted to 40.6%. Moreover, the AC50 under setting [2] was 3.66 µM [falling, single point]. Further, the half-maximal activity concentration (AC50) under setting [1] is 23.1 µM [rising, single point].
Take `COc1ccc2cc(C(=O)C3CCCN(C(=O)c4cncs4)C3)ccc2c1` (stereo not drawn): the cell number change was found to be 25.2%. Further, under setting [2], the AC50 was 6.51 µM [rising, single point].
Take `Cc1ccc(NC(=O)c2ccc(NS(=O)(=O)c3ccc4[nH]c(=O)[nH]c4c3)cc2)nc1`: the cell number change is -30.6%. For the same compound, the half-maximal activity concentration (AC50) under setting [2] is 4.61 µM [falling, full curve, poor fit].
On to `COc1ccc2[nH]c(=O)c(CN(CC3CCCO3)C(=O)Nc3ccccc3OC)cc2c1` (stereo not drawn), for which the cell number change is -3.78%. Also, the concentration at half-maximal activity (AC50) under setting [1] was 1.84 µM [rising, full curve].
As to `Cc1ccc(SC[C@H](CC(C)C)N2CCN(CCc3ccccc3)CCC2=O)cc1`, the cell number change was -17.7%. Besides, the concentration at half-maximal activity (AC50) under setting [1] is 23.1 µM [falling, partial curve].
Turning to `COc1ccc2[nH]c(C(O)(Cc3cccnc3)Cc3cccnc3)cc2c1`, the cell number change was 18.6%. The half-maximal activity concentration (AC50) under setting [1] is 1.46 µM [rising, partial curve].
Consider `Cc1cccn2c(=O)c3cc(C(=O)NC4CCCCC4C)n(C)c3nc12` (stereo not drawn), for which the cell number change turned out to be 6.42%. Moreover, under setting [1], the AC50 was 0.92 µM [falling, single point].
For the compound `O=C(CC1SC(=Nc2ccc(OC(F)F)cc2)N(CCN2CCOCC2)C1=O)Nc1ccc(F)cc1F` (stereo not drawn), the cell number change was found to be 21.6%. For the same compound, under setting [2], the AC50 is 6.51 µM [rising, partial curve, poor fit].
`CCN1C(=O)[C@H]2[C@@H](c3ccc(C)cc3)N3C(=O)N(c4ccc(C)cc4)C(=O)[C@@]3(CC)[C@H]2C1=O`: the cell number change was found to be 5.87%. In addition, the half-maximal activity concentration (AC50) under setting [1] is 32.6 µM [rising, single point].
Consider `CCc1nn(C(C)C(=O)NCCc2ccc(OC)c(OC)c2)c(=O)c2cc3occc3n12` (stereo not drawn), for which the cell number change was -4.87%. Also, the half-maximal activity concentration (AC50) under setting [1] is 2.31 µM [rising, partial curve].
For `O=C(NCc1ccco1)c1cccc(NC(=O)c2ccccc2)c1`, the concentration at half-maximal activity (AC50) under setting [2] is 1.3 µM [rising, full curve] and the AC50 under setting [1] was 0.58 µM [rising, single point].
Regarding `CCOc1ccc(C(=O)Nc2cc(S(=O)(=O)Nc3ccccc3Cl)ccc2N2CCOCC2)cc1`, the cell number change was -13.5%. Further, under setting [1], the AC50 is 2.59 µM [rising, full curve].
`CCNC(=O)c1ccccc1-c1nc(-c2ccccc2Cl)no1`: the cell number change was -1.45%. The AC50 under setting [1] is 5.8 µM [rising, single point].
On to `N#CC1=C(N)OC2=C(C(=O)CCC2)C1c1ccc(OC(=O)N2CCOCC2)cc1` (stereo not drawn), for which the cell number change was 2.9%. In addition, under setting [2], the AC50 was 0.58 µM [falling, full curve].
Regarding `Cc1ccc2[nH]c(=O)c(CN(Cc3cccs3)Cc3nnnn3Cc3ccccc3)cc2c1`, the cell number change was -4.28%.
Take `O=C(N/N=C/c1ccncc1)/C(=C/c1ccccc1)NC(=O)c1ccccc1`: the half-maximal activity concentration (AC50) under setting [1] is 0.517 µM [rising, single point].
For the compound `O=c1[nH]c2ccccc2n1C1=CCCC1`, the cell number change was found to be 1.38%. For the same compound, the AC50 under setting [1] is 29.1 µM [rising, single point].
As for `O=C(CSc1ncn[nH]1)Nc1ccc(Br)cc1F`, the cell number change was -30.5%. Also, the AC50 under setting [2] was 0.082 µM [falling, full curve, poor fit].
As for `Cc1cccc(N(C(=O)c2csnn2)C(C(=O)NC2CCCC2)c2ccncc2)c1` (stereo not drawn), the cell number change was found to be 9.24%.
For the compound `C/C(=N\NC(=O)c1ccc(F)cc1)c1ccc(NC(=O)Cc2ccccc2)cc1`, the cell number change is -7.65%. For the same compound, the half-maximal activity concentration (AC50) under setting [1] is 6.51 µM [rising, single point].
Turning to `O=C1OCCN1CCN(CN1C(=O)CCC1=O)CN1C(=O)CCC1=O`, the cell number change was -11.9%. Besides, under setting [1], the half-maximal activity concentration (AC50) is 25.9 µM [falling, partial curve, poor fit].
Consider `O=C(NCCCNC(=O)c1ccc(-c2cc(Cl)ccc2Cl)o1)c1cnccn1`, for which the cell number change is -55.3%. The AC50 under setting [2] is 16.4 µM [falling, single point].
With `O=C(Nc1ccccc1Cl)Oc1ccc(-c2ccccc2)cc1`, the cell number change is 46.8%. The AC50 under setting [2] was 13 µM [rising, partial curve]. Under setting [1], the AC50 was 29.1 µM [rising, partial curve, poor fit].
For the compound `Cc1nc(-c2ccc(O)c(O)c2)cs1`, the cell number change came out at 4.78%. Further, the half-maximal activity concentration (AC50) under setting [1] is 29.1 µM [rising, single point].
As to `COc1ccc(OC)c(S(=O)(=O)Nc2ccc3c(c2)C(=O)OC3)c1`, the cell number change was -16.4%.
With `O=C(COC(=O)C1CC(=O)N(Cc2ccco2)C1)c1ccc(OC(=O)c2ccccc2)cc1` (stereo not drawn), the cell number change is -29.2%. For the same compound, the AC50 under setting [1] was 29.1 µM [falling, single point].
In the case of `CC(C)N1C(=S)SC2CS(=O)(=O)C=C21` (stereo not drawn), the cell number change was -10.7%. Besides, under setting [1], the half-maximal activity concentration (AC50) was 2.06 µM [falling, partial curve].
Consider `CC(=O)NC(c1cc(Cl)c2ccccc2c1O)C(C)C` (stereo not drawn), for which the cell number change came to 7.44%. Besides, under setting [1], the half-maximal activity concentration (AC50) is 0.103 µM [rising, full curve, poor fit].
As to `COc1cccc(C(=O)OCC(=O)NCCc2ccccc2)c1OC`, the cell number change is -1.98%. Under setting [2], the AC50 is 6.51 µM [rising, single point]. For the same compound, under setting [1], the AC50 was 6.51 µM [rising, single point].
For the compound `Cc1c(Cl)cccc1NC(=O)COC(=O)C12CC3CC(CC(O)(C3)C1)C2`, the cell number change was found to be 2.63%. Besides, the AC50 under setting [1] was 0.146 µM [rising, full curve, poor fit].
With `COc1ccc(/C=C(/C(=O)c2cccs2)N2C=CC=CC2=C(C#N)C#N)cc1`, the cell number change is -61.8%. Further, the AC50 under setting [2] is 6.51 µM [falling, partial curve]. In addition, under setting [1], the AC50 is 5.8 µM [falling, full curve].
For `O=C1CCc2cc(S(=O)(=O)Nc3ccccc3Cl)ccc2N1`, the cell number change turned out to be 1.75%.
For the compound `COc1ccc(Cc2nnc(NC(=O)c3ccco3)s2)cc1OC`, the cell number change was -31.1%. Besides, the AC50 under setting [2] is 29.1 µM [falling, single point].
For the compound `CCN1CCN(c2ncnc3c2nnn3Cc2ccccc2)CC1`, the cell number change came out at 56.4%. Besides, under setting [2], the AC50 was 23.1 µM [rising, partial curve]. Also, the AC50 under setting [1] was 3.66 µM [rising, full curve, poor fit].
Take `O=C(COc1ccc(Cl)cc1)OCc1csc(Nc2ccccc2)n1`: the cell number change amounted to 89.1%. Under setting [2], the AC50 is 29.1 µM [rising, single point]. Under setting [1], the AC50 is 0.058 µM [falling, full curve, poor fit].
On to `Cc1c(C(=O)NCc2cccnc2)oc2ccc(S(=O)(=O)N3CCC4(CC3)OCCO4)cc12`, for which the cell number change is 18.2%. Under setting [1], the half-maximal activity concentration (AC50) was 16.4 µM [rising, partial curve].
For `Cc1ccc(NC(=O)c2ccc(Cl)c(N3C(=O)CCC3=O)c2)cc1`, the cell number change was 18.8%. Besides, under setting [1], the AC50 was 14.6 µM [rising, partial curve].
On to `Cc1ccc2c(c1)N(C(=O)CCC(=O)NCc1ccccc1)CC(C)O2` (stereo not drawn), for which the cell number change was -19%. In addition, the concentration at half-maximal activity (AC50) under setting [1] is 29.1 µM [falling, partial curve].
With `COc1ccc(-n2nc3c(c2NC(=O)Cc2cccc(C)c2)CS(=O)C3)cc1` (stereo not drawn), the cell number change was -9.5%. Moreover, under setting [1], the half-maximal activity concentration (AC50) was 3.66 µM [falling, single point].
Regarding `COc1ccc(-c2cc3ccccc3oc2=O)cc1NC(=O)c1ccc([N+](=O)[O-])o1`, the cell number change was -17.5%. Besides, the AC50 under setting [1] was 8.2 µM [falling, partial curve].
Regarding `O=C(CCCC(=O)Nc1ccc(Br)cc1)N/N=C/c1ccccc1`, the cell number change was found to be 29.6%. Under setting [1], the AC50 is 22.4 µM [rising, partial curve, poor fit].
Regarding `CCC(=O)Nc1nc2ccccc2n1Cc1ccc(C)cc1`, the cell number change was determined as 0.279%. Further, the AC50 under setting [2] is 0.13 µM [rising, full curve]. Further, the AC50 under setting [1] is 1.46 µM [rising, partial curve].
Consider `COc1cccc(C(=O)Oc2ccc(/C=N/Nc3ccc(C(=O)O)cc3)cc2OC)c1`, for which the cell number change is -8.21%. In addition, under setting [1], the AC50 was 4.61 µM [rising, single point].
In the case of `Cc1ccc(NC(=O)CSc2n[nH]c(-c3cccnc3)n2)c(Br)c1`, the cell number change worked out at 21%. The AC50 under setting [1] is 29.1 µM [rising, single point].
Regarding `O=C1CC(NCc2ccco2)C(=O)N1CCc1ccccc1` (stereo not drawn), the cell number change was -12.1%. For the same compound, under setting [1], the AC50 was 1.16 µM [falling, single point].
For `COc1ccc(/C=C(\C#N)C(=O)OCC(=O)Nc2c(C)cccc2C)cc1`, the cell number change was -11.9%. The concentration at half-maximal activity (AC50) under setting [1] is 0.651 µM [falling, partial curve, poor fit].
For `O=C(O)c1ccccc1C(=O)Nc1ccc(Oc2ccccc2)cc1`, the cell number change amounted to 26.2%. The AC50 under setting [2] is 1.84 µM [rising, full curve, poor fit].
Consider `COc1ccc(CNC(=O)c2oc3ccc(S(=O)(=O)N4CCOCC4)cc3c2C)cc1`, for which the cell number change was determined as 6.76%. The AC50 under setting [1] is 29.1 µM [falling, single point].
Consider `O=C1/C(=C\c2cccnc2)SC(=S)N1C1CCS(=O)(=O)C1` (stereo not drawn), for which the cell number change was -8.91%. Besides, the concentration at half-maximal activity (AC50) under setting [1] was 3.26 µM [rising, single point].
Regarding `CCOC(=O)N1CCN(c2cc(N3CCOCC3)c(F)cc2[N+](=O)[O-])CC1`, the cell number change is 68.2%. In addition, under setting [2], the AC50 was 29.1 µM [rising, single point]. Moreover, the AC50 under setting [1] is 29.1 µM [rising, partial curve].
On to `COc1ccc2cc(CN(CC3CCCO3)S(=O)(=O)c3ccccc3)c(=O)[nH]c2c1` (stereo not drawn), for which the cell number change stood at 65.3%. For the same compound, under setting [2], the half-maximal activity concentration (AC50) is 11.6 µM [rising, partial curve]. Besides, the half-maximal activity concentration (AC50) under setting [1] is 16.4 µM [rising, partial curve].
